Reference: article PMC4117747, “The N-terminus of Mcm10 is important for interaction with the 9-1-1 clamp and in resistance to DNA damage” (Nucleic Acids Research, 2014)
Residue numbers refer to the chain shown, from its start. Names and notes keep the numbering of the source. No constants are given. Whether binding was seen depends on the method and setting. For some assays here: Binding seen in cells or lysates may run through a third protein. Some results given as binding are weak or reduced against the parent protein; the word gives no strength. Tags and fused reporters may be left off the sequences shown.

Columns and labels:
[1] = target: T1, Mcm10 (LexA fusion, wild type) (S. cerevisiae) (UniProt P32354); assay: two-hybrid; yeast two-hybrid with pBTM116 (LexA) and pACT2 fusions; β-galactosidase activity in cell extracts, in triplicate from at least three clones
T1 sequence: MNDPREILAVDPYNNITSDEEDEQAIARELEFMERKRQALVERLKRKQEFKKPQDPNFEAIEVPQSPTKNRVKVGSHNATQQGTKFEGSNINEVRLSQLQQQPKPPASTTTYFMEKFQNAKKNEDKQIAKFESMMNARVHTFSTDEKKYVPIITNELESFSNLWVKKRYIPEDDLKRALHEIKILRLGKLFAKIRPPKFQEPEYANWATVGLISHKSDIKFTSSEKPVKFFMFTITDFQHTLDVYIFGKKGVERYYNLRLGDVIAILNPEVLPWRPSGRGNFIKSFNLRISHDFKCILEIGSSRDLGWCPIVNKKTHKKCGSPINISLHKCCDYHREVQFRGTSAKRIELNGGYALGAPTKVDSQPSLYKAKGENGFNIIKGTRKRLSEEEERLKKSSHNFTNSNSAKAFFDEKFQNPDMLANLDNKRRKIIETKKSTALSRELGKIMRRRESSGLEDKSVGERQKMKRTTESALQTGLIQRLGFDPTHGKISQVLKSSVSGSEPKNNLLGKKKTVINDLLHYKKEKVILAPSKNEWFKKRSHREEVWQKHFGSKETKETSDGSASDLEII

[2] = target: T2, Mcm10-9Myc (endogenous Mcm10 tagged at the C-terminus) (S. cerevisiae (endogenous in W303-1a derived strains)) (UniProt P32354); assay: co-IP; as a2, but cultures treated with CPT or PLE
T2 sequence: T1 sequence

[3] = target: T2, Mcm10-9Myc (endogenous Mcm10 tagged at the C-terminus) (S. cerevisiae (endogenous in W303-1a derived strains)); assay: condition: only untreated, logarithmically growing cultures; co-IP; as a2, but untreated, logarithmically growing cultures
[4] = target: T2, Mcm10-9Myc (endogenous Mcm10 tagged at the C-terminus) (S. cerevisiae (endogenous in W303-1a derived strains)); assay: co-IP; endogenously tagged proteins; DNase I-treated whole cell extracts of cultures treated with 200 mM HU or 100 J/m^2 UV; anti-c-Myc beads pull down Mcm10-9Myc, anti-HA blot

B1: Mcm10 (LexA fusion, wild type) (natural protein, S. cerevisiae, UniProt P32354 1-571, looked up)
chain: T1 sequence
notes: Mcm10, budding yeast, called full-length in the Co-IP with LexA-tagged constructs; also called LexA-tagged Mcm10; full-length Mcm10; source: yeast two-hybrid fusion (pBTM116); also overexpressed in yeast, in whole cell extract, for Co-IP
For B1, the binding [1] was “binds”.

B2: Mec3 L211A (pACT2 fusion) (protein, UniProt Q02574 1-474)
chain: MKLKLIVNGCEAPDDYKLLRTTINTVASLRKTAILRFNSERLTIISTPKSSLNSSNNGTILRGDTGQLWCTIPHDVFRLYTVISARELNTITMECNCDSLLSVFKRYDRVMNQGSSSNMTIKLQSMPEWNTNNGTLSGGTAGGVDTTSKPNPICALGITFEEIVHTSGPNDAIVMNGGVDEHNGLPTTVGTGNLLASNKVIMHSFKVPVKALFRAQDTRIQEPMINYIQLMMYKLPPISGEFGSAFHGFIRRVERYSNVNHIHLMGVKKKEHGNEGDDVELKIIVNELDWHLEICWNGPLDSVIQRQEGLTDNPSQNQHIDTDGRQEEGSLPIIEADKPMSSLYTNTRDREMEENIRYDEDLLRIEDSSIADTRGNIYTADTSGDTEFNDISVMVEKAEQESSSTHEVIIRCKDWKVCSKLYAAFEEVVLAISHDESCVFHCSLDRGSLEDSEDVEKPRERGQIIYYIARSKGL
For B2, the binding [1] was “binds”.

B3: Mec3 L212A (pACT2 fusion) (protein, UniProt Q02574 1-474)
chain: B2 chain with A211L, L212A
In the case of B3, the binding [1] is reported as “binds”.

B4: Mec3 I220A (pACT2 fusion) (protein, UniProt Q02574 1-474)
chain: B2 chain with A211L, I220A
In the case of B4, the binding [1] is reported as “binds”.

B5: Mec3 I225A (pACT2 fusion) (protein, UniProt Q02574 1-474)
chain: B2 chain with A211L, I225A
In the case of B5, the binding [1] is reported as “binds”.

B6: Mec3 Y227A (pACT2 fusion) (protein, UniProt Q02574 1-474)
chain: B2 chain with A211L, Y227A
For B6, the binding [1] was “binds”.

B7: Mec3 L230A (pACT2 fusion) (protein, UniProt Q02574 1-474)
chain: B2 chain with A211L, L230A
B7 was tested, and the binding [1] was “binds”.

B8: Mec3-3HA (endogenous Mec3 tagged at the C-terminus) (protein, UniProt Q02574 1-474)
chain: B2 chain with A211L
In the case of B8, the binding [2] is reported as “no binding (condition: cultures treated with CPT or PLE)”, the binding [3] is reported as “no binding” and the binding [4] is reported as “binds weakly”.

B9: Rad17 (two-hybrid fusion) (protein, UniProt P48581 1-401)
chain: MRINSELANKFSASTVHLEHITTALSCLTPFGSKDDVLIFIDADGLSFVRENNHVIKIQLLLSRELFMSYSYRNETEDHMKLCVKINHILDSVSVMNRNSDDIVECTLSYDGHGSPFVLIFEDSFISERVEYSTYLIKDFDTNGLELDRERISFEAIIKGEALHSALKDLKEIGCKECYVYAKTEANDENVFALISKSQLGFSKIKLPSNRSILEKLQVFDGDSTTVIDGFAVIGFFDFTSFDKIRKSTKIASKVLFRMDVHGVLSVNILSQTDDVIITDTTRPSNNRPGSIRQLQLPKDYPGIVIEVCMLEKESIDEAAQTEIELLMETNELGNRNSFKKSTIRKRYGTDKGNETSNDNLLQLNGKKIKLPSEEENNKNRESEDEENHCKYPTKDIPIFF
B9 was tested, and the binding [1] was “no binding”.
